Reference: patent publication US20220259318A1
These are yes or no findings as the source states them, for the method shown. Some results given as binding are weak or reduced against the parent protein; the word gives no strength.

Amino acid sequences for entries named in this document (tags omitted). A change or cut given only in a name is not applied to a line headed by its entry.
UniProt Q9NZD1: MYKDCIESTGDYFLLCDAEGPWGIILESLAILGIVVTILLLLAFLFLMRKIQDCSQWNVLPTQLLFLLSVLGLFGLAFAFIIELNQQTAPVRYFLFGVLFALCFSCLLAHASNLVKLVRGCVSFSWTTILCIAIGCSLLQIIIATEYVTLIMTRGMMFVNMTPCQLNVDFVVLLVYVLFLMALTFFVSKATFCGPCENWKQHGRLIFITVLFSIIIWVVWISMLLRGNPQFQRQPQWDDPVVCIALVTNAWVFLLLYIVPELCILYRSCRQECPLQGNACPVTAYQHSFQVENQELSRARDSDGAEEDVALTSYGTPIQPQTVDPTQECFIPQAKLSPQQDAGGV

Target: human GPRC5D (human) (UniProt Q9NZD1)
Test: cell ELISA, CHO cells stably expressing human GPRC5D

binding: binds
B1: 07A04 IgG (antibody, V domains shown)
VH: QVTLKESGPGILQPSHTLSLTCSFSGFSLSTYGMGVNWIRQPSGKGLEWLASIWWNGNTYNNPSLKSRLTVSKDTSNNQAFLKVTSVDTADTATYYCVHTRGIIRGRGLFFDYWGQGVMVTVSS
VL: DVQMTQSPYNLAASPGESVSINCKASKSISKYLAWYQQKPGKANKLLIYDGSTLQSGIPSRFSGSGSGTDFTLTIRSLEPEDFGLYYCQQHNEYPLTFGSGTKLEIKR
